Assay results published in PubChem BioAssay AID1347426 (Functional Genomics Laboratory (NCATS/FGL), 2020).
Out of some 31,000 sequences screened, about 1,400 (4.5%) were called active.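 How the source made its calls: active means median seed-adjusted z-score above 1 or below -1; inactive means the rest.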 The list shows a part of the results.

experiment: Novel Modifiers of Survival Motor Neuron (SMN) Protein: Gene Identification via Genome-wide siRNA Screen; details: HEK293T SMN2-luciferase reporter, siRNA knockdown, 72 h; actives lie on both sides
Description: Spinal muscular atrophy (SMA) is the most common neuromuscular autosomal recessive disorder and one of the leading genetic causes of infant death. SMA results from mutations inducing loss of function or deletion in the survival of motor neuron-1 gene (SMN1), leading to deficiency of the survival motor neuron (SMN) protein. Although a second nearly identical gene, SMN2, is retained in humans, its expression primarily produces an aberrantly spliced isoform that is largely unstable and quickly degraded. We performed a genome-wide RNAi screen using a cell-based reporter assay to identify genes and pathways that modulate SMN protein stability. The screen identified over 200 genes that led to the greatest increase or decrease in luciferase expression.
Using HEK293T cells stably expressing a luciferase reporter that combines the promoter and splicing based cassettes in tandem with the major portion of the native SMN2 cDNA with luciferase, we performed a genome-wide RNAi screen to identify modulators of SMN protein levels. Luciferase is expressed when full-length SMN protein is generated with luminescence signal proportional to SMN protein levels. Our luciferase-based reporter assay was used to screen Ambion Silencer Select Human Druggable Genome siRNA library (10418 genes, 3 unique siRNAs per gene) using lipid-based reverse transfection.
Briefly, 1 pmol of each siRNA was spotted to a well of a 384-well plate (Corning, Corning, NY) and 20 microL of serum-free DMEM containing […] of Lipofectamine RNAiMax (Life Technologies, Carlsbad, CA) was then added to each well. Transfected cells were maintained at 37 degrees C in 5% CO2 for 72 hours, 20 microL of ONE-Glo Reagent (Promega) was added to wells for luciferase quantification. Raw luminescence reads were normalized to Ambion(R) Silencer(R) Negative Control #2 siRNA, then log10 transformed. A robust statistical measure of median absolute deviation (MAD) to standardize siRNA activities from each screen. Common Seed Analysis was used to help prioritize clean hits as opposed to those appearing to arise from seed based off-target effects. Candidate modulators were defined as the genes having a MAD score greater than 1.0 or less than -1.0.

| Sequence | median seed-adjusted z-score |
| --- | --- |
| GGGAAACUGCUGAUAGUCATT against IKZF2 | inactive: 0.514 |
| AGAACCUGCUCAAGAAGGATT against SOX14 | inactive: -0.296 |
| GGAAGCCGAUAUGAUUAAATT against MYT1L | inactive: -0.43 |
| CCAACCACAUUAUACGAUATT against RBL2 | inactive: 0.0211 |
| CCCACGUGGAUAACGAAUATT against CD5 | inactive: 0.0416 |
| GAAUGUAAGGAUCAUCAAATT against FTSJ2 | inactive: -0.277 |
| GCACACUUGUCACUCGUGUTT against TP53BP1 | inactive: -0.166 |
| GAAUAUCGACAUUACAGAUTT against PPEF2 | inactive: 0.354 |
| AGCCCUUCGUGGUCAAGUUTT against DNASE1L2 | inactive: -0.228 |
| GCUGUGAAGUGUAUCCCUATT against CAMK1D | inactive: -0.0629 |
| CGAUGGGAAUAAUCACGAATT against GFPT2 | inactive: 0.412 |
| GAACAUCGACUUUGCAGAATT against GDA | inactive: -0.406 |
| GGAGAAAGAAUCAACGGAATT against KAT5 | inactive: 0.32 |
| CACCCAGAGUUGAUAAUGATT against SFRS14 | inactive: -0.312 |
| CAGGCGAUCAUGGAGCUGATT against PGAM2 | inactive: -0.247 |
| GCCUACAUCUAGUGAAACATT against PHF20L1 | inactive: 0 |
| GCAUGGACGAGGCAUUGAATT against RGS7 | inactive: 0.415 |
| GUACGAGACCUGUUCCAGATT against UCK2 | active: -1.51 |
| GGAUCUCUUUCACACGAUUTT against NECAB2 | inactive: -0.286 |
| GUAACAUACUCACCUCGUATT against USP47 | inactive: 0.3 |
| GCAUUGUGAUCCGAACUAUTT against NPSR1 | inactive: -0.314 |
| GAAAUUGUGAGGCAGAUGATT against RAP2A | inactive: -0.727 |

A run of entries taken from the entries so far, as a working copy:

| Sequence | median seed-adjusted z-score |
| --- | --- |
| GCAUGGACGAGGCAUUGAATT against RGS7 | inactive: 0.415 |
| GUACGAGACCUGUUCCAGATT against UCK2 | active: -1.51 |

Next entries follow.

| Sequence | median seed-adjusted z-score |
| --- | --- |
| GCAUUCCAGCUACCCUGAUTT against SPIB | inactive: 0.0726 |
| CCUUGAUAGCAUCCGGUAATT against BHMT | inactive: 0 |
| GAAGCGUACCAAGACCAUUTT against UNC13B | inactive: -0.0216 |
| GAAAAUUGAGUUUGAACAATT against MYL1 | inactive: 0.24 |
| CGAUUGCUUUUCUACCAACTT against SCP2 | inactive: 0.413 |
| CCUUUGCACUACAUUCGAATT against ASH1L | inactive: -0.197 |
| GCCUUACUCUGUACAUAGATT against KLF13 | inactive: -0.501 |
| CGGCUGCAUAGAAAACGUATT against CNTNAP1 | inactive: 0.176 |
| AGUGAGAUUUGAAGAGAUUTT against ADC | inactive: -0.157 |
| CGAACAGUCUGAAUACGAATT against PCDHA6 | inactive: 0.419 |
| GAAUCGAGCUCAUCCGAAUTT against CAPN9 | inactive: 0.417 |
| GGUACACUCUGUGUGCCCATT against EGFL7 | inactive: 0.8 |
| GGAAUAGCAUGGUUGAGGATT against SLC22A3 | inactive: 0.126 |
| AGGUUUAUGAUGAUAAAGATT against NDUFS6 | inactive: -0.0128 |
| GAAGUGCAGUUGGAAAGCATT against NAT11 | inactive: 0.37 |
| CAAUUACCUUGAAGAAGUUTT against PJA1 | inactive: -0.275 |
| GCACACUAGCUGAACUAAATT against BUB1B | inactive: -0.579 |
| AGAUCCCUUUCAUUCGAGATT against SOX4 | inactive: -0.188 |
| CUAAGAAACCUAAUGUUGATT against TAF9B | inactive: -0.0247 |
| CCAGAGAAAUGAGAUUGGATT against ZNF195 | inactive: 0.0753 |
| GGACCAUUUGGAUUGUGCATT against SPPL2A | inactive: -0.358 |
| GCCGCAAUAUUUUCCGCAATT against HUNK | inactive: -0.183 |

| Sequence | median seed-adjusted z-score |
| --- | --- |
| GGAACAUCAUUAAGAAUGATT against NEIL2 | inactive: -0.256 |
| GGACUGUAAGGAUGAUCUATT against SUPV3L1 | inactive: -0.169 |
| GUUACGAUGUCACAGAGUATT against MPRIP | inactive: 0.238 |
| GAACAGGAGGUGAUACUGATT against COL20A1 | inactive: -0.0033 |
| CUCUCGCAGUGUUAUCGGATT against CPB1 | inactive: -0.376 |
| GCAGUCUAUUUGUUAUAGATT against CDH9 | inactive: -0.18 |
| GAAACCUUCUACAAGCAUATT against GALNTL2 | inactive: 0.164 |
| GGCUUGCGCAAGAUCAAUATT against ATRNL1 | inactive: -0.142 |
| CCAUUAACCACAUACCAGATT against TLR7 | inactive: 0.189 |
| GGUUACGUGUUAUCUACAATT against LRBA | inactive: 0.219 |
| CCAUGCUCGUGGUGCACAATT against B3GNT7 | active: -1.05 |
| GCUUUUACCUUUACAGUCATT against USP37 | inactive: 0.0907 |
| CCUACAACCUCAUUCGCAATT against PIK3C2B | inactive: -0.653 |
| GAUCAUAAGCUGCCCAACATT against HOXD4 | inactive: 0.566 |
| GAUUAGUCUCCAUCAAUAATT against F2R | inactive: -0.392 |
| GACUAUCCCGCUGCCCUUUTT against B3GNT8 | inactive: 0.236 |
| GUGGAUAACUCAUCCUUAATT against ATP1A2 | inactive: 0.248 |
| CCAUGGACAACUACCCUAATT against EGR1 | inactive: 0.0836 |
| CCUUAUUCCUGUUCUCAGUTT against ZNF200 | inactive: 0.498 |
| CAAAGAACGAUGAGAAUAATT against PCDHA8 | inactive: 0 |
| GGAUUUCCCUCUGUGGGUATT against DRG2 | inactive: -0.175 |
| CACCGCAUAUUAAAACGUATT against PTEN | inactive: -0.408 |

| Sequence | median seed-adjusted z-score |
| --- | --- |
| GGAUGACGAGCUGAACUUUTT against MGRN1 | inactive: -0.318 |
| UGAAAAACAUUAACAAGCATT against RNASE7 | active: 1.07 |
| CCAACCAUAUCUACACUUATT against MYO5B | inactive: -0.212 |
| GCCUGUCCAGGAUCGUGAATT against CTRB1 | inactive: -0.214 |
| GGAGCUCUCUUUGUUGGAATT against ERAL1 | inactive: -0.46 |
| CUAUAGAUGUGAUCAGUGUTT against ZNF32 | inactive: 0.034 |
| GGAGGCUAUUCAUAAGGUATT against GTF3C2 | inactive: 0.32 |
| GGAAAUCUCCUGCUCGAAATT against PIP5K3 | inactive: 0.00523 |
| GACUCUAAGUGAGACUGAATT against LRFN1 | inactive: 0.605 |
| CCUUUGUCAAAGAAUCGAATT against DNAJC9 | inactive: 0.0545 |
| GCAAUUUCUUGUUUCGUUATT against SLC9A6 | inactive: -0.0831 |
| UGAUUGCUUUCAAACUGGATT against PCBP4 | inactive: -0.269 |
| GGAACAAAUAACCACGAAATT against PAFAH1B2 | inactive: 0.0991 |
| GCGUGGUCAACGAUCUGUATT against FAM84B | inactive: -0.431 |
| CCUACUUACCAGCCCUUGATT against SPAG6 | inactive: -0.439 |
| GAGCUGACGUGAGAAAUAUTT against B3GNT3 | inactive: 0.439 |
| CAACUAUGCAGACUAUUCATT against SYT13 | inactive: 0.275 |
| GAAAGACAACCAUCCUGAATT against ARL2 | inactive: 0.0301 |
| GGCCUAUGCAAAAAGAGGATT against BAD | inactive: 0 |
| AAUUCGAUAUGUUCAGCAATT against GPX4 | active: -1.18 |
| CCCAAAUUCUGGUAACAGUTT against PCDHGA6 | inactive: 0.0559 |
| GGAUUUGCCUCUCGAGAUATT against ABCB11 | inactive: 0.14 |

| Sequence | median seed-adjusted z-score |
| --- | --- |
| GCAAAGCUCUAAAGCCCAATT against TXNDC12 | inactive: -0.154 |
| GUCUGAUGAUCACAAAAUATT against RRAGC | inactive: -0.557 |
| GCCUGAAAGGUGUAGACUUTT against ETS1 | inactive: -0.0588 |
| UAAGAACACCGUUACCCAATT against NLGN4X | inactive: -0.1 |
| GGAAAAACAUGACUAGCAATT against EYA3 | inactive: -0.0191 |
| CAUUCGUCGUAACUUUACATT against MIPEP | inactive: -0.169 |
| CAACAUGGAUGGUCAAGGATT against IL6R | inactive: -0.441 |
| GCCUUACCUGGAGAACUGATT against VPS26A | active: -1.55 |
| CCAACUAUCCCAGCAAGUATT against NETO1 | inactive: 0.0504 |
| GGAGAUAUCCAUGCUAUAATT against CDH8 | inactive: 0.169 |
| GGACGAGCCUCAUGAAUGATT against SEC11B | active: 1.04 |
| GCUGGAUCACGAACAGGUATT against SAE1 | inactive: 0.831 |
| CAAAGAUCCAAGACUAUCATT against JAK2 | inactive: 0.163 |
| GUAGGACUCUCAUUCGGGATT against CCND1 | inactive: -0.912 |
| GCUUCACACUGAAUAGACATT against ZNF17 | inactive: 0.579 |
| CAAUAAGACCUAUUCAACUTT against SNAI2 | inactive: 0 |
| GGACAAAUCAGAGCUUAAATT against G3BP1 | inactive: -0.593 |
| GUGAAACCCGAGUAUCUUATT against ZADH2 | inactive: -0.47 |
| CAGCAUACGUAGGAAAUCUTT against EIF4H | inactive: 0.0349 |
| GUACAGGCCCUACAUCAUUTT against LRP5 | active: -1 |

Some of the entries above in a different format:
Sequence | median seed-adjusted z-score
GCACACUAGCUGAACUAAATT against BUB1B | inactive: -0.579
AGAUCCCUUUCAUUCGAGATT against SOX4 | inactive: -0.188

As entered above.
CUAUAGAUGUGAUCAGUGUTT against ZNF32 | median seed-adjusted z-score: inactive: 0.034
GAAAGACAACCAUCCUGAATT against ARL2 | median seed-adjusted z-score: inactive: 0.0301
